Values quoted from earlier work in paper PMC11280027, “Conquering the beyond Rule of Five Space with an Optimized High-Throughput Caco-2 Assay to Close Gaps in Absorption Prediction” (Pharmaceutics, 2024).

Settings: human fraction absorbed; rounded to two significant figures; ref [17]; cited from earlier work

## Nc1nc2ccc(OC(F)(F)F)cc2s1 [Riluzole]
  Observed Human fa: 0.90
